Results as given in article PMC4837325, “Arabidopsis HIGH PLOIDY2 Sumoylates and Stabilizes Flowering Locus C through Its E3 Ligase Activity” (Frontiers in Plant Science, 2016).
These are yes or no findings as the source states them, for the method shown. In cells and extracts the contact can be indirect. Some results given as binding are weak or reduced against the parent protein; the word gives no strength. Tags and fused reporters may be left off the sequences shown.

Sequences of proteins named here, by UniProt entry; tags and fusion partners are left off.
UniProt Q9S7Q7: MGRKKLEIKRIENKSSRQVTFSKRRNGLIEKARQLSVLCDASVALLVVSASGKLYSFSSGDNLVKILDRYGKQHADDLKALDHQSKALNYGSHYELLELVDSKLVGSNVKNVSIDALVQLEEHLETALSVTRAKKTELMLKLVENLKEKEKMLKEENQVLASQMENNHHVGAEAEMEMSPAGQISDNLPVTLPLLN

Biological target: T1, HPY2-FLAG3 (Arabidopsis thaliana) (UniProt Q8GYH7)
T1 sequence: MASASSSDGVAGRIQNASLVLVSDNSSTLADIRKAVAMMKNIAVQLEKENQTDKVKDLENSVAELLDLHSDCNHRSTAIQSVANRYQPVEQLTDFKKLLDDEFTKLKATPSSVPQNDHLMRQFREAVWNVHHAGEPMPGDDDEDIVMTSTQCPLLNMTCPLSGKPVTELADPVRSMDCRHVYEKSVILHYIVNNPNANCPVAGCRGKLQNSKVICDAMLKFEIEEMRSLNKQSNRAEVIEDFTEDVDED
Assay: co-IP; Arabidopsis leaves co-infiltrated with 35S-Myc6-FLC and 35S-HPY2-FLAG3; total protein immunoprecipitated with anti-FLAG antibody in 50 mM Tris-Cl pH 8.0, 150 mM NaCl, 10% glycerol, 1% NP-40, 2 mM EDTA; FLC detected with anti-Myc antibody

## Myc6-FLC (from UniProt Q9S7Q7 1-196)
  binding: binds
